Screening data

Source: PubChem BioAssay AID504749 (NCATS, 2011).

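A panel of P. falciparum strains inside erythrocytes is exposed to compounds for three days, then a DNA-binding dye reports the amount of parasite DNA. Each compound was titrated across a series from about 0.000037 to 29 µM. The number is the fitted AC50, the concentration giving a half-maximal change in signal; a lower value means higher potency, whether the curve shows a decrease or an increase. Calls follow the curve class and fit quality: every row here is inconclusive, covering signal-raising curves and weak, poorly fitted, partial or highest-dose-only inhibition curves.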

Values are in nM. Every entry below has the call inconclusive. These entries are mostly ones the record files as inconclusive; other results of the assay are not listed here. A potency from a partial, single-point or poor curve is only a rough figure. The first word of each remark tells which way the curve ran; it can be opposite to the aim of the assay.

- CCCCCCOc1ccc(C(=N)N(CCCC)CCCC)c2ccccc12 [Dd2] : Potency 15848 nM (inhibitor, single point)
- CCCCCCOc1ccc(C(=N)N(CCCC)CCCC)c2ccccc12 [AS120] : Potency 10000 nM (inhibitor, single point)
- CCCCCCOc1ccc(C(=N)N(CCCC)CCCC)c2ccccc12 [N140] : Potency 17782 nM (inhibitor, single point)
- CCCCCCOc1ccc(C(=N)N(CCCC)CCCC)c2ccccc12 [HB3] : Potency 10000 nM (inhibitor, single point)
- CCCCCCOc1ccc(C(=N)N(CCCC)CCCC)c2ccccc12 [CP329] : Potency 19011 nM (inhibitor, single point)
- CCCCCCOc1ccc(C(=N)N(CCCC)CCCC)c2ccccc12 [PC26] : Potency 16944 nM (inhibitor, single point)
- CCCCCCOc1ccc(C(=N)N(CCCC)CCCC)c2ccccc12 [ATS95] : Potency 12589 nM (inhibitor, single point)
- CCCCCCOc1ccc(C(=N)N(CCCC)CCCC)c2ccccc12 [CP266] : Potency 1510 nM (inhibitor, partial curve, poor fit)
- CCCCCCOc1ccc(C(=N)N(CCCC)CCCC)c2ccccc12 [CP211] : Potency 19011 nM (inhibitor, single point)
- CCCCCCOc1ccc(C(=N)N(CCCC)CCCC)c2ccccc12 [CP203] : Potency 15101 nM (inhibitor, single point)
- CCCCCCOc1ccc(C(=N)N(CCCC)CCCC)c2ccccc12 [PC49] : Potency 12589 nM (activator)
- CCCCCCOc1ccc(C(=N)N(CCCC)CCCC)c2ccccc12 [CP194] : Potency 19011 nM (inhibitor, single point)
- CCCCCCOc1ccc(C(=N)N(CCCC)CCCC)c2ccccc12 [AA1029] : Potency 10000 nM (inhibitor, single point)
- CCCCCCOc1ccc(C(=N)N(CCCC)CCCC)c2ccccc12 [DFO2036] : Potency 14125 nM (inhibitor, partial curve, poor fit)
- CCCCCCOc1ccc(C(=N)N(CCCC)CCCC)c2ccccc12 [SC27B] : Potency 12589 nM (inhibitor, single point)
- CCCCCCOc1ccc(C(=N)N(CCCC)CCCC)c2ccccc12 [CP269] : Potency 16944 nM (inhibitor, single point)
- CCCCCCOc1ccc(C(=N)N(CCCC)CCCC)c2ccccc12 [CP268] : Potency 19011 nM (inhibitor, single point)
- CCCCCCOc1ccc(C(=N)N(CCCC)CCCC)c2ccccc12 [CP238] : Potency 12589 nM (inhibitor, single point)
- CCCCCCOc1ccc(C(=N)N(CCCC)CCCC)c2ccccc12 [CP215] : Potency 16944 nM (inhibitor, single point)
- CCCCCCOc1ccc(C(=N)N(CCCC)CCCC)c2ccccc12 [CP265] : Potency 10000 nM (inhibitor, single point)
- CCCCCCOc1ccc(C(=N)N(CCCC)CCCC)c2ccccc12 [CP305] : Potency 16944 nM (inhibitor, single point)
- CCCCCCOc1ccc(C(=N)N(CCCC)CCCC)c2ccccc12 [CP291] : Potency 16944 nM (inhibitor, single point)
- CCCCCCOc1ccc(C(=N)N(CCCC)CCCC)c2ccccc12 [FAB9] : Potency 15848 nM (inhibitor, single point)
- CCCCCCOc1ccc(C(=N)N(CCCC)CCCC)c2ccccc12 [PAD] : Potency 10000 nM (inhibitor, single point)

2 of the entries, repeated:

{"compound": "CCCCCCOc1ccc(C(=N)N(CCCC)CCCC)c2ccccc12", "tested on / at": "CP329", "Potency (nM)": "19011", "curve": "inhibitor, single point"}
{"compound": "CCCCCCOc1ccc(C(=N)N(CCCC)CCCC)c2ccccc12", "tested on / at": "PC26", "Potency (nM)": "16944", "curve": "inhibitor, single point"}